Source: ChEMBL document CHEMBL3988442, “University of Dundee, Small-Polar-MMV Screening Library” (2021).

Sequences of proteins named here, by UniProt entry; tags and fusion partners are left off. Residues count along the entry.
UniProt A4I591, 1-473: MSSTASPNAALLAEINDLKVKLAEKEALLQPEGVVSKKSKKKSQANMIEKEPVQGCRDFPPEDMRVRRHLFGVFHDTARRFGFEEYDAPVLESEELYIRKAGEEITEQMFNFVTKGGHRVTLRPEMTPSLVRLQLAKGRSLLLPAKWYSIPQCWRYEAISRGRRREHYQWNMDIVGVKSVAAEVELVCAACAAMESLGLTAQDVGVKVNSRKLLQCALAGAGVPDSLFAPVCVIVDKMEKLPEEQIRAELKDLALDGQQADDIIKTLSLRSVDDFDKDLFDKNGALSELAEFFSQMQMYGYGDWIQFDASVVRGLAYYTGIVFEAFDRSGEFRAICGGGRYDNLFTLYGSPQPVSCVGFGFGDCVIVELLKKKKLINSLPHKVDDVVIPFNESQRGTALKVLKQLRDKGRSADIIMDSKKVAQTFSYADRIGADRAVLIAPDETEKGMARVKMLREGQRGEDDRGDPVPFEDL
UniProt I6X8D2, whole entry: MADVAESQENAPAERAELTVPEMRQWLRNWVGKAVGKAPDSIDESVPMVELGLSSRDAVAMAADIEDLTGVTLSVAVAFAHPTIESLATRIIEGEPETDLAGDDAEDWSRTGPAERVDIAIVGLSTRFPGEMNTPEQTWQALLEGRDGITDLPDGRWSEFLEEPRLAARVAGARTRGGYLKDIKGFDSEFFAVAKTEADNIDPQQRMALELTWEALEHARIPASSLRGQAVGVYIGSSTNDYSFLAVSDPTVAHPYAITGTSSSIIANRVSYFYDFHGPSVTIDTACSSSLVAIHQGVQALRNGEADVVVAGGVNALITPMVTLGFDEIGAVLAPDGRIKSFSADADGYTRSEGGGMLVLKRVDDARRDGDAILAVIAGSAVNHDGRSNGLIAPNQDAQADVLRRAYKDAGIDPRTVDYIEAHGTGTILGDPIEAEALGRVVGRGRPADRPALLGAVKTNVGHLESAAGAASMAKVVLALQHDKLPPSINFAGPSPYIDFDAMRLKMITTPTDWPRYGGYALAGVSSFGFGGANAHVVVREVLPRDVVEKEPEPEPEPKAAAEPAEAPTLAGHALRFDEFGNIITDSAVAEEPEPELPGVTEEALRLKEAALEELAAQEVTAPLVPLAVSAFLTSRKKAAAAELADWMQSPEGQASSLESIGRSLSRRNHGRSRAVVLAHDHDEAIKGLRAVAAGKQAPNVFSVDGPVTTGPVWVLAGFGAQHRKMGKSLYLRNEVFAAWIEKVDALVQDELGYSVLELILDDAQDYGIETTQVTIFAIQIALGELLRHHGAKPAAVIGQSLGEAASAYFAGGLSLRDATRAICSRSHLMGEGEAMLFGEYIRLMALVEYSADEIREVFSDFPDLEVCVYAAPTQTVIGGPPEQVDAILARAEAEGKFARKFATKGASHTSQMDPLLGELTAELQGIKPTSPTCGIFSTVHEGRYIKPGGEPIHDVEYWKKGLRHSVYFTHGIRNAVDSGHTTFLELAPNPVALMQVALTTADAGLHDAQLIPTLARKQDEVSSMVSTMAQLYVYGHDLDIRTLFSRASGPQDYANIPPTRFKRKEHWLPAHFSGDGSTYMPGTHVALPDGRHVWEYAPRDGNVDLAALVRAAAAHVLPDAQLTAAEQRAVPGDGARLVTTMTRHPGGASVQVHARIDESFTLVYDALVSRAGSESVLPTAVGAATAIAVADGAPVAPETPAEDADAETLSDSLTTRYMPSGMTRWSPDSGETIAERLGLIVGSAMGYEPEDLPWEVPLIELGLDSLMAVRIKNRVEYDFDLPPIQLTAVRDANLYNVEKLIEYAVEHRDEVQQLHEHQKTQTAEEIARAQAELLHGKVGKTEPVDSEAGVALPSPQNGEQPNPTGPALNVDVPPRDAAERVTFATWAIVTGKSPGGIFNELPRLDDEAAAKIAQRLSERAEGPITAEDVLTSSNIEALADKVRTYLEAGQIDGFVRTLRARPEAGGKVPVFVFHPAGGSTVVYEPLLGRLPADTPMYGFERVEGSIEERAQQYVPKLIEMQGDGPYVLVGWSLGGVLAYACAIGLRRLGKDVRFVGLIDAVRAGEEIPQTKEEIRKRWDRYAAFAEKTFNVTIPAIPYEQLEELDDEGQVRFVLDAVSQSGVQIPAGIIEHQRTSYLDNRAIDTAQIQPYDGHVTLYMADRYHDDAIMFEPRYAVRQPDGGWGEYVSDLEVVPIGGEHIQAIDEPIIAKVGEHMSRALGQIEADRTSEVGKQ

Leishmania in macrophages: 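Cell assay of Leishmania donovani living inside macrophages; the read-out is not stated. Concentration: 30 µM. Direction is inferred from retests: higher values go with stronger inhibition. Size under these conditions: about 69,000 compounds, about 1,000 of them at 50% or above in at least one test.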
LiHisRS: 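Histidine-tRNA ligase, Leishmania infantum (UniProt A4I591). Enzyme assay of histidyl-tRNA synthetase; the read-out is not stated. Concentration: 30 µM. Higher reads as stronger inhibition (inferred: compounds with an IC50 in retests scored well above the rest). The assay is labelled LdHisRS but filed under L. infantum. Of about 69,000 compounds tested this way, about 410 (0.6%) reached 50% or more in at least one test.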
Pks13 thioesterase: 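Enzyme assay of the thioesterase domain of polyketide synthase 13; the read-out is not stated. Target: Polyketide synthase Pks13, Mycobacterium tuberculosis (UniProt I6X8D2). Concentration: 30 µM. Higher reads as stronger inhibition (inferred from which compounds were picked for retests). Of about 67,000 compounds tested this way, about 300 (0.46%) reached 50% or more in at least one test.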

Results are given as percent effect.
The controls that fix the scale are not given in the record; negative values are as filed.
The compounds are a random part of those screened.
Two or more numbers in one place are separate tests of the same structure; such repeats can differ widely.

* O=C(c1ccoc1)N1CCOCC2(CCN(C3CCOCC3)C2)C1 (stereo not drawn) | LiHisRS: 5.128%; Pks13 thioesterase: -4.688%
* CCOCC1CC2(CCN(C(=O)c3ccc4ccccc4n3)CC2)CO1.O=C(O)C(F)(F)F (stereo not drawn) | Leishmania in macrophages: 35.2%
* Cc1ccc(C2CSCCN2CCS(C)(=O)=O)cc1 (stereo not drawn) | Leishmania in macrophages: 5.375%; LiHisRS: 6.202%; Pks13 thioesterase: -2.351%
* Cn1ccnc1-c1ccc(NCC2COCCO2)nn1 (stereo not drawn) | Leishmania in macrophages: -10.37%; LiHisRS: 6.25%; Pks13 thioesterase: 11.3%
* CN(CCc1noc(C2CC2)n1)C(=O)CCc1cc2n(n1)CCCNC2 | Leishmania in macrophages: -19.07%; LiHisRS: -61.33%; Pks13 thioesterase: -26.99%
* CSCCC(O)C(=O)N1CCN(Cc2cccc(Cl)c2)CC1 (stereo not drawn) | Leishmania in macrophages: 21.55%; LiHisRS: 4.959%; Pks13 thioesterase: -14.7%
* O=S1(=O)N(c2ccccc2)C[C@@H](O)[C@]12CCNC2 | Leishmania in macrophages: 26.71%; LiHisRS: 14.43%; Pks13 thioesterase: 2.917%
* Cc1ccnc(N2CCN(Cc3ccccc3)CC(O)C2)c1 (stereo not drawn) | Leishmania in macrophages: -14.36%; LiHisRS: 11.11%; Pks13 thioesterase: -9.66%
* Cc1c(C2NC3(CCCC3)C(=O)N2CC2CC2)cc(C#N)n1C (stereo not drawn) | Leishmania in macrophages: 14.13%; LiHisRS: 7.018%; Pks13 thioesterase: -12.02%
* CO[C@@H]1CCN(S(=O)(=O)N(C)C)[C@@H]2CN(Cc3cccnc3)C[C@@H]21 | LiHisRS: 17.95%; Pks13 thioesterase: -2.445%
* CC1CCN(CCCNC(=O)C2CCCCC2)CC1 | Leishmania in macrophages: -1.213%; LiHisRS: 6.494%; Pks13 thioesterase: 21.15%
* COc1cc(CSc2nnc(C)n2CC(N)=O)ccc1SC | Leishmania in macrophages: -42.23%; LiHisRS: 12.35%; Pks13 thioesterase: -12.22%
* CCN1CCN(C(=O)C2CC(=O)N(c3cnn(C(C)C)c3)C2)CC1 (stereo not drawn) | Leishmania in macrophages: 32.82%; LiHisRS: 1.149%; Pks13 thioesterase: 28.71%
* Cc1ccc(CCN2CCC(N(C)Cc3noc(C4CC4)n3)C2)cc1 (stereo not drawn) | Leishmania in macrophages: 45.25%; LiHisRS: -8.511%; Pks13 thioesterase: -4.05%
* O=C(c1ccccn1)N1CCc2ncc(Cn3cccn3)n2CC1 | LiHisRS: 22.22%; Pks13 thioesterase: -13.08%
* O=C(O)C(F)(F)F.[H][C@@]12C[C@H](C)O[C@@]1([H])CCN(S(=O)(=O)c1c(C)nn(C)c1C)C2 | Leishmania in macrophages: 13.83%
* COC(=O)c1cccc(C(=O)N2CCN(C(=O)N(C)C)CC2(C)C)c1 | Leishmania in macrophages: 0.5207%; LiHisRS: 21.52%; Pks13 thioesterase: -24.16%
* Cc1cc(C)n(CC2CN(CC(=O)Nc3nncs3)CCO2)n1 (stereo not drawn) | Leishmania in macrophages: -11.27%; LiHisRS: 5.479%; Pks13 thioesterase: -4.348%
* CCNC(=O)[C@@H]1CCCN1[C@@H](C(=O)NC)c1ccccc1OC.Cl | Leishmania in macrophages: 15.52%
* O=C1NCCCCC1Sc1nnc(-c2cccnc2)n1C1CC1 (stereo not drawn) | Leishmania in macrophages: 23.66%; LiHisRS: 17.31%; Pks13 thioesterase: -2.332%
* Cc1nc(-c2cccnc2)ncc1C(=O)N1CCCC(N(C)C)CC1 (stereo not drawn) | Leishmania in macrophages: 23.47% and -15.46%; LiHisRS: 17.95%
* O=C(O)C(F)(F)F.[H][C@]12CN(Cc3csc(C)n3)C(=O)[C@@]1([H])CN(c1ncccn1)C2 | Leishmania in macrophages: -18.13%
* O=C(COc1ccccc1O)N1CCOC(C(F)(F)F)C1 (stereo not drawn) | Leishmania in macrophages: -31.99%; LiHisRS: 8.73%; Pks13 thioesterase: -27.83%
* O=C1CN(C(=O)OCc2ccccc2)CC(O)CN1Cc1ccco1 (stereo not drawn) | Leishmania in macrophages: -12.75%; LiHisRS: -4.082%; Pks13 thioesterase: -26.98%
* O=C(O)C(F)(F)F.[H][C@@]12CCN(CC(=O)NC)C[C@]1([H])CN(C(=O)c1ccc(C)nc1)C2 | Leishmania in macrophages: 5.698%
* COc1c(C(=O)NC(C)Cc2ccccc2Cl)c(C)nn1C (stereo not drawn) | Leishmania in macrophages: 24.38%; LiHisRS: 14.16%; Pks13 thioesterase: -7.34%
* [H][C@@]12CCN(C(=O)CCc3ccccc3Cl)C[C@]1(COC)CCO2 | Leishmania in macrophages: 24.04%
* Cc1[nH]ccc1C(=O)N1C[C@H]2CC[C@@H]1CN(S(=O)(=O)N(C)C)C2 | LiHisRS: 16.13%; Pks13 thioesterase: -14.47%
* COCCN1CCOCC12CCN(c1nccs1)CC2.O=C(O)C(F)(F)F | Leishmania in macrophages: 34.39%
* Cc1cn(CC(=O)NC2CCN(S(C)(=O)=O)CC2)c2ccccc12 | Leishmania in macrophages: 26.47%; LiHisRS: 11.32%; Pks13 thioesterase: -6.093%
* Cc1ccsc1C(=O)N1CC(C(=O)NCC2CC2)C2(CCOCC2)C1 (stereo not drawn) | Leishmania in macrophages: 9.114%; LiHisRS: -2.913%; Pks13 thioesterase: -15.2%
* CCn1cc(CN(C)S(=O)(=O)c2ccc(NC(C)=O)cc2)cn1 | Leishmania in macrophages: -4.701%; LiHisRS: 11.65%; Pks13 thioesterase: -15.6%
* Cc1ccc(CN2CCc3nnc(CN4CCCC4=O)n3CC2)o1 | LiHisRS: 15.38%; Pks13 thioesterase: -43.25%
* CCCc1nncn1-c1cc(OC)ccc1OC | Leishmania in macrophages: -15.66%; LiHisRS: 6.061%; Pks13 thioesterase: -9.625%
* COc1ccc(CN2CCc3sccc3C2C)cc1CN1CCOCC1.Cl (stereo not drawn) | Leishmania in macrophages: -46.5%
* COc1ccc(CN(C)[C@@H]2CN(C(=O)c3cccnc3)C[C@H]2O)cc1 | Leishmania in macrophages: 6.783%; LiHisRS: 15.62%; Pks13 thioesterase: 9.973%

Once more, the final 3:

- CCCc1nncn1-c1cc(OC)ccc1OC | Leishmania in macrophages: -15.66%; LiHisRS: 6.061%; Pks13 thioesterase: -9.625%
- COc1ccc(CN2CCc3sccc3C2C)cc1CN1CCOCC1.Cl (stereo not drawn) | Leishmania in macrophages: -46.5%
- COc1ccc(CN(C)[C@@H]2CN(C(=O)c3cccnc3)C[C@H]2O)cc1 | Leishmania in macrophages: 6.783%; LiHisRS: 15.62%; Pks13 thioesterase: 9.973%